# Measurements reported in PubChem BioAssay AID504764 (Drosophila RNAi Screening Center, 2011).
# Assay: 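Knock-downs that raise or lower a Notch target reporter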 (primary screen)
# Cell system: Drosophila Kc167 cells
# Reagent: long dsRNA against Drosophila genes
# Timing: about 5 days (4 days dsRNA, then 24 h after transfection)
# Challenge: transfection of constitutively active membrane-tethered Notch lacking the extracellular domain, read 24 h later
# Measured: 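Firefly luciferase from an E(spl)m3 reporter with active Notch, plus control-promoter and uninduced reporter wells for normalisation; unnormalised counts, duplicate wells a and b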
# Direction: induced reporter light, run 1, well a and induced reporter light, run 1, well b: higher = more light from the Notch target reporter with active Notch; control promoter light, run 1, well a and control promoter light, run 1, well b: higher = more light from the viral control promoter (cell number, transfection, viability); uninduced reporter light, run 1, well a: higher = more light from the Notch target reporter without active Notch
# Hit rule: 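Wells with low control signal or poorly matching duplicates excluded; duplicates averaged; per source plate, z beyond ±2 for induced/control log2 ratio or beyond ±1.8 for induced/uninduced marks a hit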
# Meaning of the calls: active = modifier hit (raised or lowered Notch signal); inactive = not a hit
# In all, the deposit lists about 22,000 reagents; this is a random part of those with a known target gene and a result. In the full data, 403 (1.9%) got an active call. 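Unnormalised raw counts per well; ratio z-scores behind the hit calls and whether each hit raises or lowers signal are not deposited.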 A plus sign joins genes that one reagent is predicted to hit. Reagent sequences are not shown. Not given: the amount of reagent.
predicted target,DRSC id,"induced reporter light, run 1, well a","induced reporter light, run 1, well b","control promoter light, run 1, well a","control promoter light, run 1, well b","uninduced reporter light, run 1, well a",outcome
Mur89F,DRSC15544,1.83e5,1.93e5,1.96e5,2.01e5,17320,inactive
Rh4 + sina,DRSC11396,1.34e5,1.57e5,78520,1.05e5,11555,inactive
CG17298,DRSC15221,1.73e5,1.41e5,1.64e5,1.41e5,10478,inactive
CG4953,DRSC02792,2.41e5,2.50e5,2.17e5,1.83e5,17980,inactive
CG15118,DRSC06540,1.45e5,1.67e5,2.40e5,3.38e5,12360,inactive
GABA-B-R2,DRSC14134,1.73e5,2.13e5,2.62e5,2.67e5,16445,inactive
Fibp,DRSC11031,1.02e5,1.31e5,66610,90480,9035,inactive
vig,DRSC03630,1.54e5,1.68e5,1.53e5,1.78e5,14965,inactive
vig,DRSC03631,1.93e5,2.15e5,1.73e5,1.87e5,19320,inactive
Tango2,DRSC19394,2.32e5,1.70e5,2.63e5,2.38e5,14000,inactive
CG42729,DRSC10236,1.95e5,1.77e5,2.45e5,2.26e5,5610,inactive
CG42523,DRSC00251,1.90e5,1.58e5,2.03e5,1.87e5,12650,inactive
lawc (retired record),DRSC22531,,,,,,inactive
brm,DRSC11330,61595,38560,51075,44540,2955,inactive
Prp38,DRSC07060,1.68e5,1.64e5,1.35e5,1.29e5,10495,inactive
Hnf4,DRSC01032,99980,1.22e5,1.73e5,1.43e5,10010,inactive
Hnf4,DRSC03344,1.75e5,1.61e5,2.46e5,2.45e5,14655,inactive
Kif3C,DRSC17209,1.14e5,1.09e5,1.69e5,2.01e5,8630,inactive
Kif3C,DRSC17210,1.61e5,1.37e5,2.22e5,1.78e5,9688,inactive
prg,DRSC03324,1.47e5,2.00e5,1.25e5,1.83e5,23170,inactive
Atac3,DRSC08579,1.25e5,1.20e5,2.22e5,2.24e5,9085,inactive
Piezo,DRSC03092,82415,80550,77380,70235,6300,inactive
CG9692,DRSC11091,1.74e5,1.67e5,2.40e5,1.98e5,9905,inactive
Mur11Da,DRSC18960,68765,69140,81385,56000,4165,inactive
CG11885,DRSC00329,1.61e5,1.81e5,3.30e5,2.78e5,15588,inactive
Ubc87F,DRSC16513,2.33e5,2.46e5,2.06e5,2.17e5,18145,inactive
Echs1,DRSC06999,97980,1.17e5,1.41e5,1.35e5,11790,inactive
Pect,DRSC02867,2.20e5,2.73e5,2.22e5,2.25e5,19545,inactive
Pect,DRSC02868,1.48e5,1.78e5,1.53e5,1.86e5,15075,inactive
CG5149,DRSC02819,1.63e5,1.79e5,1.98e5,2.11e5,17970,inactive
CG6621,DRSC16076,82730,88835,79865,80960,10332,inactive
Usp1,DRSC14155,2.26e5,2.19e5,2.52e5,3.11e5,15650,inactive
CG43693,DRSC09086,1.42e5,1.72e5,1.74e5,1.68e5,12720,inactive
CG43693,DRSC10625,1.54e5,1.19e5,93670,38645,8580,inactive
CG9903,DRSC20213,74620,62075,60915,59410,7650,inactive
Sas-4,DRSC12505,1.05e5,1.22e5,1.11e5,94120,7838,inactive
Dpy-30L1,DRSC02959,1.10e5,1.39e5,70425,98395,17438,inactive
CG7330,DRSC10813,2.18e5,1.81e5,2.31e5,2.29e5,10295,inactive
CG7330,DRSC10814,2.54e5,1.99e5,2.49e5,2.17e5,7895,inactive
CG13670,DRSC10029,2.75e5,2.64e5,2.37e5,2.42e5,6905,inactive
CG13856,DRSC14706,1.49e5,1.55e5,1.72e5,1.75e5,12925,inactive
l(2)gd1,DRSC02773,2.38e5,2.49e5,1.81e5,1.93e5,15145,inactive
CG17618 (retired record) + CG45049,DRSC16163,1.93e5,1.59e5,2.21e5,2.19e5,14525,inactive
CG5214,DRSC15739,69835,84090,73875,50450,5395,inactive
rk,DRSC03602,1.53e5,1.85e5,1.63e5,1.85e5,13120,inactive
E(spl)m3-HLH,DRSC16694,21075,16600,10790,14155,4665,inactive
CG5265,DRSC15756,2.47e5,2.37e5,2.83e5,2.88e5,17540,inactive
wls,DRSC10605,1.72e5,2.28e5,1.41e5,85840,15760,inactive
spt4,DRSC07696,2.24e5,1.84e5,1.87e5,2.12e5,21615,inactive
Ugt36E1,DRSC02599,2.22e5,2.88e5,1.91e5,2.09e5,16690,inactive
